PubChem BioAssay AID1224830 | NIAID, 2016

Test: 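Host factors that control LPS-induced TNF expression in human macrophages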 (primary screen)
Cells: human THP-1 monocytic leukaemia cells, TNF dual-luciferase reporter clone, PMA-differentiated to macrophage-like cells
Reagent: siRNA pool against human genes, 50 nM
Time to read-out: LPS for 4 h, given about 3 days after siRNA transfection
Treatment: bacterial LPS (TLR4 ligand), 10 ng/ml
Measured: 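Ratio of firefly to renilla light, scaled to the plate median and expressed as a robust z-score per replicate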
Reading the numbers: TNF reporter robust z-score: higher = stronger TNF reporter response to LPS
Hit rule: 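a well is active when its z-score exceeds 2.8 or falls below -1.5; control wells carry no call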
The whole screen tested about 18,000 reagents; shown is a random part of them. Of all reagents, about 2,900 (16%) are marked active. 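Calls are made per well; low scores hint the gene aids the LPS response, high scores that it dampens it.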 A number with no mark means an inactive call. Repeated entries: four replicate wells of each siRNA pool.

| gene knocked down | PubChem SID | TNF reporter robust z-score |
| --- | --- | --- |
| SPRING1 | SID315459464 | -1.12 |
| SPRING1 | SID315459464 | 0.61 |
| SPRING1 | SID315459464 | 0.14 |
| SPRING1 | SID315459464 | -0.78 |
| CMTM7 | SID315461149 | 1.16 |
| CMTM7 | SID315461149 | 0.53 |
| CMTM7 | SID315461149 | -0.02 |
| CMTM7 | SID315461149 | 0.51 |
| ACTN2 | SID315447169 | -0.78 |
| ACTN2 | SID315447169 | -0.43 |
| ACTN2 | SID315447169 | -0.26 |
| ACTN2 | SID315447169 | -0.16 |
| TSPAN32 | SID315453799 | -0.55 |
| TSPAN32 | SID315453799 | 0.67 |
| TSPAN32 | SID315453799 | 0.73 |
| TSPAN32 | SID315453799 | 0.93 |
| TRMT9B | SID315458498 | -0.57 |
| TRMT9B | SID315458498 | 0.37 |
| TRMT9B | SID315458498 | -0.28 |
| TRMT9B | SID315458498 | -0.55 |
| OR56A1 | SID315461503 | -0.56 |
| OR56A1 | SID315461503 | -0.79 |
| OR56A1 | SID315461503 | 0 |
| HIVEP1 | SID315449194 | 1.74 |
| HIVEP1 | SID315449194 | 1 |
| HIVEP1 | SID315449194 | 0.61 |
| HIVEP1 | SID315449194 | 0.82 |
| BEND4 | SID315464546 | -0.22 |
| BEND4 | SID315464546 | 0.28 |
| BEND4 | SID315464546 | 0.1 |
| BEND4 | SID315464546 | 1.2 |
| GP6 | SID315456555 | 0.78 |
| GP6 | SID315456555 | 0.52 |
| GP6 | SID315456555 | 0.35 |
| GP6 | SID315456555 | 1.79 |
| PYCR1 | SID315450995 | 0.36 |
| PYCR1 | SID315450995 | 0.02 |
| PYCR1 | SID315450995 | -0.41 |
| PYCR1 | SID315450995 | -0.92 |
| TSSK3 | SID315459929 | -0.07 |
| TSSK3 | SID315459929 | -0.66 |
| TSSK3 | SID315459929 | -0.42 |
| TSSK3 | SID315459929 | -0.29 |
| CCNA1 | SID315452915 | -1.22 |
| CCNA1 | SID315452915 | -0.79 |
| CCNA1 | SID315452915 | -0.17 |
| CCNA1 | SID315452915 | 2 |

A stretch from the list above:
| gene knocked down | PubChem SID | TNF reporter robust z-score |
| --- | --- | --- |
| HIVEP1 | SID315449194 | 0.82 |
| BEND4 | SID315464546 | -0.22 |
| BEND4 | SID315464546 | 0.28 |
| BEND4 | SID315464546 | 0.1 |
| BEND4 | SID315464546 | 1.2 |
| GP6 | SID315456555 | 0.78 |
